Results deposited as PubChem BioAssay AID1259308 (NCATS, 2017)
Assay: 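Candidate targets for better recombinant protein yield in mammalian cells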 (primary screen). System: human HEK293 embryonic kidney cells stably expressing firefly luciferase (HEK-CMV-Luc2-Hygro). Reagent: single siRNA against human genes, 0.8 pmol siRNA per well. Time to read-out: 72 h. Detection: 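Reporter luminescence and viable-cell signal on separate replicate plates, given as percent of non-targeting control and median/MAD z-scores, plus per-cell luciferase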. Scale: total luciferase, z-score: higher = more reporter protein produced. Active means: 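An siRNA counts as active if its total luciferase robust z-score exceeds 3; genes with two or more such siRNAs out of three were retested with fresh siRNAs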. Meaning of the calls: active = raised luciferase; inactive = no rise.
Here is an unselected part of about 59,000 reagents tested. About 1,510 of them (2.6%) count as active. 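Calls use total luciferase alone and ignore viability, so some active siRNAs may act by altering cell number.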 The numbers tell different reagents against one gene apart. Further read-outs or replicates are left out here.

With knock-down of AKR7L (GeneID 246181) #1, the screen gave total luciferase, z-score 0.343; inactive. Silencing of AKR7L (GeneID 246181) #2 resulted in: total luciferase, z-score -0.182; inactive. For AKR7L (GeneID 246181) #3, the entry reads total luciferase, z-score -0.531; inactive. After knock-down of CRIP3 (GeneID 401262) #1, the screen gave total luciferase, z-score 0.423; inactive. For CRIP3 (GeneID 401262) #2, the entry reads total luciferase, z-score 0.631; inactive. After knock-down of CRIP3 (GeneID 401262) #3, the screen gave total luciferase, z-score -1.16; inactive.

Laid out differently: entries from further up.
target gene,reagent no.,"total luciferase, z-score",Call
CRIP3 (GeneID 401262),1,0.423,inactive
CRIP3 (GeneID 401262),2,0.631,inactive

More reagents follow.
After knock-down of DZIP1L (GeneID 199221) #1, the record shows total luciferase, z-score -0.453; inactive. With knock-down of DZIP1L (GeneID 199221) #2, the record shows total luciferase, z-score -0.765; inactive. DZIP1L (GeneID 199221) #3 gave total luciferase, z-score -0.424; inactive. TEX15 (GeneID 56154) #1 showed total luciferase, z-score -1.86; inactive. Silencing of TEX15 (GeneID 56154) #2 resulted in: total luciferase, z-score -0.518; inactive. After knock-down of TEX15 (GeneID 56154) #3 the results were total luciferase, z-score -0.00823; inactive.
